Reference: US20050053985A1
These are yes or no findings as the source states them, for the method shown. Binding seen in cells or lysates may run through a third protein. Some results given as binding are weak or reduced against the parent protein; the word gives no strength.

Experiments:
[1] = molecular target: CPSF30 (30 kD factor 4) (human) (UniProt O95639); test: co-purification (anti-Flag then Ni beads), SDS-PAGE, Western blot
[2] = molecular target: T1, CstF64 (64 kD subunit 2) (human) (UniProt P33240); test: as above
T1 sequence (looked up): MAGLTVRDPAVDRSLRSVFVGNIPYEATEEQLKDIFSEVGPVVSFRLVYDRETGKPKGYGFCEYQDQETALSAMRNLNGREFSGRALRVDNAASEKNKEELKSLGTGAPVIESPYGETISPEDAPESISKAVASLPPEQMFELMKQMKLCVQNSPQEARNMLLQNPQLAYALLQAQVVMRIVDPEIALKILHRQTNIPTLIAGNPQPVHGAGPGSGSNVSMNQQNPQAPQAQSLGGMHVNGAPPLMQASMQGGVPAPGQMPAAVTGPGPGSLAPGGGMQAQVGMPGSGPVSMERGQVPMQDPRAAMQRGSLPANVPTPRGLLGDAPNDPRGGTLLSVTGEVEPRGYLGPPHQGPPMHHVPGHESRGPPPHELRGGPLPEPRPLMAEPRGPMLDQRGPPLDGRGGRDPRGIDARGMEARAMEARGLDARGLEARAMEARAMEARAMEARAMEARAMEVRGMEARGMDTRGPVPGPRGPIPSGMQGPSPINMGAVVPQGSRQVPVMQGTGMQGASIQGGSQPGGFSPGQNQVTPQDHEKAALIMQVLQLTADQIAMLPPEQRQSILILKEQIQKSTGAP

Symplekin (human) [3] = molecular target: T2, Symplekin (human) (UniProt Q92797); test: as above
T2 sequence (looked up): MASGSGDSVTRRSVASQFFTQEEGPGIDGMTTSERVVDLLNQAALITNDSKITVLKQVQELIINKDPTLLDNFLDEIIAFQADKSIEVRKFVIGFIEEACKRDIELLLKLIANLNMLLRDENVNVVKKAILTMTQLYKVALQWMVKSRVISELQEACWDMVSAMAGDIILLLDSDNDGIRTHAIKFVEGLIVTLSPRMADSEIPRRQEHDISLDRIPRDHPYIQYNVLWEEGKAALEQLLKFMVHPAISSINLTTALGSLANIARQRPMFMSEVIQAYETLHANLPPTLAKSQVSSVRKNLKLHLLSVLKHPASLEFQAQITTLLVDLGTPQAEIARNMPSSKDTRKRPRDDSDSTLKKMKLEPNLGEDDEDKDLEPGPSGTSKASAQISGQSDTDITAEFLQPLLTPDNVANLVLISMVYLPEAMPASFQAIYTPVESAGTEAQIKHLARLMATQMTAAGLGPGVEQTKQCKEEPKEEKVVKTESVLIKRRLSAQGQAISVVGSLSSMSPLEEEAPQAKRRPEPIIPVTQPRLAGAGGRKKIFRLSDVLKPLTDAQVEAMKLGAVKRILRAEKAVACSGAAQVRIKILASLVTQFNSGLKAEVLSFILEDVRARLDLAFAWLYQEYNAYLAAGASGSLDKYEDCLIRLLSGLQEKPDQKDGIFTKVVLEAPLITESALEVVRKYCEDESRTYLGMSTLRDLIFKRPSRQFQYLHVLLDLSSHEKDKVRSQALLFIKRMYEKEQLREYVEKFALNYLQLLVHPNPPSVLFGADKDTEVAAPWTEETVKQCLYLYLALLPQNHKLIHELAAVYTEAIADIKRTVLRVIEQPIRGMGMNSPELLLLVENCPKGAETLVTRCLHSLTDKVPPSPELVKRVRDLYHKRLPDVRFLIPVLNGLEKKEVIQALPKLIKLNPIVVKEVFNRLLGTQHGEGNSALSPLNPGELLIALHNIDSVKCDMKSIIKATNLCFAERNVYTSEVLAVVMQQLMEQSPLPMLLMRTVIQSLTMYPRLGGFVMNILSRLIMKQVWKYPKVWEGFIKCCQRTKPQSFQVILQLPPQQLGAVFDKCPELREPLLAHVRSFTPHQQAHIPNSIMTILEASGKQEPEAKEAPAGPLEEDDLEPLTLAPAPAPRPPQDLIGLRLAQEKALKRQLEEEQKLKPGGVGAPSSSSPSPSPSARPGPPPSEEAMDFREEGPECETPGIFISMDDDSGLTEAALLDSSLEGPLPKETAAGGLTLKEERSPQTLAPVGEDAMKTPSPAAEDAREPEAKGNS

HsSen15 (human) [4] = molecular target: T3, HsSen15 (human) (UniProt Q8WW01); test: co-purification (anti-Flag then Ni beads), gel electrophoresis
T3 sequence (looked up): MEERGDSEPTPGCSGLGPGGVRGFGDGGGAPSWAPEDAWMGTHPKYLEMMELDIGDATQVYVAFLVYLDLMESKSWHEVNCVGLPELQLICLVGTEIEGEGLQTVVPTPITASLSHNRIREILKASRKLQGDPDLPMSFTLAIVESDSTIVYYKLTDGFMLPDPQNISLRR

HsSen15 (human) [5] = molecular target: T3, HsSen15 (human); test: co-purification with the His-Flag-tagged bait from stable 293 cells (anti-Flag beads, then Ni beads); SDS-PAGE, silver staining
HsSen15 (human) [6] = molecular target: T3, HsSen15 (human); test: co-purification (anti-Flag then Ni beads), SDS-PAGE, silver staining
[7] = molecular target: T1, CstF64 (64 kD subunit 2) (human); test: co-purification with the His-Flag-tagged bait from stable 293 cells (anti-Flag beads, then Ni beads); SDS-PAGE, Western blot with anti-CstF64 antibody
HsSen15 (human) [8] = molecular target: T3, HsSen15 (human); test: co-purification (anti-Flag then Ni beads), SDS-PAGE, silver staining, peptide sequencing
Symplekin (human) [9] = molecular target: T2, Symplekin (human); test: co-purification with the His-Flag-tagged bait from stable 293 cells (anti-Flag beads, then Ni beads); SDS-PAGE, Western blot with anti-Symplekin antibody
HsClp1 (human) [10] = molecular target: T4, HsClp1 (human) (UniProt Q92989); test: co-purification with tagged subunits
T4 sequence (looked up): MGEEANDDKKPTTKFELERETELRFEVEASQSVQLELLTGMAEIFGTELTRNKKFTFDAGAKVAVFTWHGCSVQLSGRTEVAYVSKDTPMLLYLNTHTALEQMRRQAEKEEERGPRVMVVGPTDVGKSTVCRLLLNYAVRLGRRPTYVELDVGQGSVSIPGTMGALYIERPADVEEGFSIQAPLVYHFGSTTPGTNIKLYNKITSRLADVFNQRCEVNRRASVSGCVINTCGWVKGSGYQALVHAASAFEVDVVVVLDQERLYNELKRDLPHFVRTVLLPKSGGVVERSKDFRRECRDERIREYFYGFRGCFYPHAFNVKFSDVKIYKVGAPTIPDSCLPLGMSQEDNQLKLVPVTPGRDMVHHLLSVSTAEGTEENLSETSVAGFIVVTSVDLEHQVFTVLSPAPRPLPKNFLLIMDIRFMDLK

HsClp1 (human) [11] = molecular target: T4, HsClp1 (human); test: co-purification (anti-Flag then Ni beads), gel electrophoresis
HsClp1 (human) [12] = molecular target: T4, HsClp1 (human); test: co-purification with the His-Flag-tagged bait from stable 293 cells (anti-Flag beads, then Ni beads); SDS-PAGE, silver staining
HsSen54 (human) = molecular target: T5, HsSen54 (human) (UniProt Q7Z6J9); test: as above
T5 sequence (looked up): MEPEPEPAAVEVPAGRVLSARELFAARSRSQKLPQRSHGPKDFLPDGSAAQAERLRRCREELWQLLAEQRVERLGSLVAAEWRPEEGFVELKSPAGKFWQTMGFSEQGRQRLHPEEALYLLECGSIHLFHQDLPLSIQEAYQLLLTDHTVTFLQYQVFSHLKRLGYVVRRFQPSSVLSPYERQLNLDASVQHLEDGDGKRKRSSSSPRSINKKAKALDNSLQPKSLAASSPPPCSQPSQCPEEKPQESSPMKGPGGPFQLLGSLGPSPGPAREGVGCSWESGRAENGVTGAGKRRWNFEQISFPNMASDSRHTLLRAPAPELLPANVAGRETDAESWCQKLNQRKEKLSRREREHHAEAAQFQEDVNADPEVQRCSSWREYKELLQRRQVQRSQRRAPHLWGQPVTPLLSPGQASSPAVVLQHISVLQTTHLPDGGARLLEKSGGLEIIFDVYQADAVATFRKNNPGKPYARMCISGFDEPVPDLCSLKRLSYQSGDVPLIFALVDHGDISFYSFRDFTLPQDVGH

HsSen34 (human) [13] = molecular target: T6, HsSen34 (human) (UniProt Q9BSV6); test: as above
T6 sequence (looked up): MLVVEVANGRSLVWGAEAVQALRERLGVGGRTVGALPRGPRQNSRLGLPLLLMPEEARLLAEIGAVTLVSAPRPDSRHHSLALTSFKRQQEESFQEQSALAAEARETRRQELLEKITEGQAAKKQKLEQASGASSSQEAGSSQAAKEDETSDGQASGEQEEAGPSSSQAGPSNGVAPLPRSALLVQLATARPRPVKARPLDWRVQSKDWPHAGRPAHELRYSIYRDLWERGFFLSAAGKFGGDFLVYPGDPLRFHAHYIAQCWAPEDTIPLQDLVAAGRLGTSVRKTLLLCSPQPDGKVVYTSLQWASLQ

HsSen34 (human) [14] = molecular target: T6, HsSen34 (human); test: co-purification (anti-Flag then Ni beads), SDS-PAGE, silver staining
[15] = molecular target: T1, CstF64 (64 kD subunit 2) (human); test: co-purification with His-Flag-tagged subunits, Western blot
Symplekin (human) [16] = molecular target: T2, Symplekin (human); test: as above
[17] = molecular target: CPSF30 (30 kD factor 4) (human) (UniProt O95639); test: co-purification with the His-Flag-tagged bait from stable 293 cells (anti-Flag beads, then Ni beads); SDS-PAGE, Western blot with anti-CPSF30 antibody
HsSen2 (human) [18] = molecular target: T7, HsSen2 (human) (UniProt Q8NCE0); test: co-purification with the His-Flag-tagged bait from stable 293 cells (anti-Flag beads, then Ni beads); SDS-PAGE, silver staining
T7 sequence (looked up): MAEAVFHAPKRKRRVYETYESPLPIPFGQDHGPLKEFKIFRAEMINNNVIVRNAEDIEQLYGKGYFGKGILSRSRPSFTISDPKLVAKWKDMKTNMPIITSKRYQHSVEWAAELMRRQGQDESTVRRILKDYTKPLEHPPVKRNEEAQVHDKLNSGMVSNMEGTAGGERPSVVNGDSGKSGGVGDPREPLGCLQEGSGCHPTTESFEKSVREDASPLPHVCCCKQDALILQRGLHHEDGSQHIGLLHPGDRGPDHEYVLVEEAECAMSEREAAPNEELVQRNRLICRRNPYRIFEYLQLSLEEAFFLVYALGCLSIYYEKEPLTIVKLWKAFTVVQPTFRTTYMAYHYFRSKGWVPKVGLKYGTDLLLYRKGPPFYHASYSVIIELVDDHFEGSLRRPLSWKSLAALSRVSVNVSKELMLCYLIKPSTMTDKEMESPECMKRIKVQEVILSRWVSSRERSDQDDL

HsSen2 (human) [19] = molecular target: T7, HsSen2 (human); test: co-purification (anti-Flag then Ni beads), SDS-PAGE, silver staining

Measured: binding

His-Flag-HsSen34 (from UniProt Q9BSV6 1-310)
binds: [1] | [2] | Symplekin (human) [3] | HsSen15 (human) [4] | HsSen15 (human) [5] | HsSen15 (human) [6] | [7] | HsSen15 (human) [8] | Symplekin (human) [9]

His-Flag-HsSen2 (from UniProt Q8NCE0 1-465)
binds: [1] | [2] | Symplekin (human) [3] | HsClp1 (human) [10] | HsClp1 (human) [11] | HsSen15 (human) [4] | HsClp1 (human) [12] | HsSen15 (human) [5] | HsSen54 (human) | HsSen34 (human) [13] | HsSen15 (human) [6] | HsSen34 (human) [14] | [15] | Symplekin (human) [16] | [7] | HsSen15 (human) [8] | Symplekin (human) [9]

His-Flag-HsSen2deltaEx8 (from UniProt Q8NCE0 1-465)
binds: [17] | [1] | [2] | Symplekin (human) [3] | HsSen54 (human) | [15] | Symplekin (human) [16] | [7] | Symplekin (human) [9]

His-Flag-HsSen15 (from UniProt Q8WW01 1-171)
binds: [1] | [2] | Symplekin (human) [3] | HsSen2 (human) [18] | HsClp1 (human) [12] | HsSen34 (human) [13] | HsSen2 (human) [19] | HsSen34 (human) [14] | [7] | Symplekin (human) [9]
